Measurements as given in PubChem BioAssay.
The other results are listed elsewhere or left out. Potency and affinity values are given separately. The source made no clear call on entries shown without one.

Tests used:
[1] = Drosophila SCA1 whole organism dose response for polyglutamine toxicity reduction (AID 1595); details: Drosophila SCA1 polyglutamine model, at 1 µM, stronger effect = higher value
[2] = PubChem AID 1597; details: Drosophila SCA1 polyglutamine model, at 1 µM, stronger effect = higher value

Structure (SMILES) | suppression of toxicity [1] | suppression of toxicity [2]
C[C@@H]1CC2C3C[C@H](F)C4=CC(=O)C=C[C@]4(C)[C@@]3(F)[C@@H](O)C[C@]2(C)[C@@]1(O)C(=O)COC(=O)C(C)(C)C (stereo not given in full) | 1.43 | 1.43
C[C@@H]1CC2C3C[C@H](F)C4=CC(=O)C=C[C@]4(C)[C@@]3(F)[C@@H](O)C[C@]2(C)[C@@]1(O)C(=O)CO (stereo not given in full) | 0 | 5
CC(C)(C)c1ccc(C(O)CCCN2CCC(C(O)(c3ccccc3)c3ccccc3)CC2)cc1 (stereo not given) | 0 | 1.43
CC1=CC(=O)c2ccccc2C1=O | 0 | 11.4
CC1=C(C(=O)O)N2C(=O)[C@@H](NC(=O)[C@H](N)c3ccc(O)cc3)[C@H]2SC1 | 25.7 | 2.86
CCCC1O[C@@H]2CC3C4CCC5=CC(=O)C=CC5(C)C4[C@@H](O)CC3(C)[C@]2(C(=O)CO)O1 (stereo not given in full) | 1.43 | 12.1
CC(=O)N[C@@H](Cc1c[nH]c2ccccc12)C(=O)O | 1.43 | 3.58
COC(=O)C(N)CS (stereo not given) | 4.29 | 8.57
Cn1c(=O)c2c(ncn2CC(O)CO)n(C)c1=O (stereo not given) | 8.57 | 8.57
Oc1ccc(Cl)c2cccnc12 | 7.14 | 7.86
O=C1c2c(O)cccc2Cc2cccc(O)c21 | 0 | 1.43
NC(=NCc1ccccc1)NC(=O)c1nc(Cl)c(N)nc1N | 0 | 0
NCCCCNCCCN | 0 | 2.86
O=C1C(CCS(=O)c2ccccc2)C(=O)N(c2ccccc2)N1c1ccccc1 (stereo not given) | 1.43 | 3.57
CC1(C)C2CC[C@]3(C)C(C(=O)C=C4[C@H]5C[C@@](C)(C(=O)O)CC[C@]5(C)CC[C@]43C)[C@@]2(C)CC[C@@H]1O (stereo not given in full) | 7.14 | 9.29

Complete entries, quoted from the list. Values in the order: suppression of toxicity [1] | suppression of toxicity [2]
`Oc1ccc(Cl)c2cccnc12` is listed with 7.14 | 7.86
`NCCCCNCCCN` is listed with 0 | 2.86
